Experimental data as given in publication doi:10.1101/2024.06.04.597356.

System: GST-TaCSP-H1 (D sub-genome + = AetHap1) (Triticum aestivum)
Assay: molecular beacon unfolding
Settings: 1 mM Mg2+, melting read-out, indirect binding

Question: Does “AGGGTTCTTTGTGGTGTTTTTATCTGTGCTTCCCTATGCACCGCCGACGACAGTCGCTAACCTCTCGCTAAGAACCCT [78-nt molecular beacon]” bind?
Answer: binds

For at least one entry, the source does not settle the construct or the ends of the probe.
